# From PubChem BioAssay AID2685 (National Center for Advancing Translational Sciences (NCATS), 2010)
# The list shows a part of the results. Further columns of the screen follow, without active or inactive calls. The list favours compounds with an active or inconclusive main result. Potencies come from curve fits of mixed quality, noted in brackets.
# Assay: qHTS Assay for Lipid Storage Modulators in Drosophila S3 Cells;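 as to cell number change: cells counted by Cell Tracker Red CMTPX staining in the red channel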
# Settings: BODIPY lipid droplet fluorescence, 18-24 h; for cell number change: measured here: cell count max response, cells fed with added oleic acid
# Outline: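 Drosophila S3 cells loaded with oleic acid (400 uM, as added) and compounds at several concentrations; lipid droplets imaged by 488-nm laser-scanning cytometry, 500–530 nm intensity and object ratio to cell channel. Percent activity normalized to 20 uM Triacsin C.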
# [1] = measured here: lipid fluorescence (Fed channel) AC50, cells fed with added oleic acid
# [2] = measured here: cell number channel AC50, cells fed with added oleic acid
SMILES,cell number change [%],AC50 [1],AC50 [2]
CCOc1ccc(NC(=S)N2CCn3c(nc4ccccc43)C2)cc1,30.5,–,–
O=C(Cc1ccccc1)NCCc1cn2ccsc2n1,15,–,–
CC(C)OCCCNCC(O)c1ccccc1 (configuration not stated),10.9,"18.4 µM [rising, partial curve, poor fit]",–
CC(=O)Nc1ccc(S(=O)(=O)N2CCN=C2SCc2ccc([N+](=O)[O-])cc2)cc1,-46.1,"35.5 µM [falling, single point]","35.5 µM [falling, single point]"
Cc1ccccc1-c1cc(-c2ccccc2O)n[nH]1,-36,–,"32.6 µM [falling, single point]"
Cc1cc(=O)oc(C)c1C(=O)NCCC1=CCCCC1,-91,"29.1 µM [falling, single point]","29.1 µM [falling, single point]"
Cc1ccc(-n2ncc3c(N4CCN(c5ccccc5)CC4)ncnc32)c(C)c1,-7.6,"2.31 µM [falling, partial curve, poor fit]","6.51 µM [falling, single point]"
COc1ccccc1CC(=O)O/N=C(\N)c1cccc([N+](=O)[O-])c1,28,–,–
COc1cccc(C(=O)NOCc2ccccc2)c1OC,-1.3,"13 µM [rising, partial curve, poor fit]",–
COc1ccc(CCNc2c([N+](=O)[O-])c(=O)oc3ccccc23)cc1OC,-22.2,"14.6 µM [falling, partial curve]",–
COc1ccc(OC)c(C2=NNC(=NCc3ccc4c(c3)OCO4)SC2)c1,3.3,"11.6 µM [rising, partial curve, poor fit]",–
CC(=O)Nc1ccc(OCC(O)Cn2c(CO)nc3ccccc32)cc1 (configuration not stated),-33.1,–,"18.4 µM [falling, single point]"
O=C1NC[C@H](Cc2ccccc2)N(CC2CCCCC2)C1=O,-6.18,"0.00651 µM [falling, full curve, poor fit]",–
COc1cc(C(=O)Nc2ccc3nc(N4CCN(C)CC4)cc(C)c3c2)cc(OC)c1OC,46.1,"5.8 µM [rising, full curve]","4.11 µM [rising, full curve, poor fit]"
Cc1cc(=O)[nH]c(SCCOc2ccc(OC(C)C)cc2)n1,-42.9,–,"29.1 µM [falling, single point]"
CCOc1ccccc1NC(=O)C(=O)/C=C(\O)c1cc(OC)ccc1OC,42.2,–,"29.1 µM [rising, single point]"
Cc1ccc(-c2nc(CN(C)Cc3ccc4nccnc4c3)c(C)o2)s1,-1.95,"6.51 µM [falling, single point]",–
CC(CNc1ccc([N+](=O)[O-])c2cccnc12)Nc1c([N+](=O)[O-])cc(C(F)(F)F)cc1[N+](=O)[O-] (configuration not stated),-84.1,"23.1 µM [falling, partial curve, poor fit]","20.6 µM [falling, single point]"
O=C(NC(=S)N1CCN(c2ccccn2)CC1)c1ccccc1,22.5,"14.6 µM [rising, partial curve]",–
O=C(CN1C(=O)c2ccccc2C1=O)Nc1ccccc1C(=O)NC1CCCCC1,44.2,"0.00411 µM [rising, full curve, poor fit]","29.1 µM [rising, single point]"

SMILES,cell number change [%],AC50 [1],AC50 [2]
COc1ccc(NC(=O)COC(=O)/C=C/c2ccc(OC)c(S(=O)(=O)N3CCOCC3)c2)cc1,-15,"16.4 µM [rising, single point]",–
CCCOc1ccc(C(=O)OCC(=O)c2c(N)n(C)c(=O)n(C)c2=O)cc1OC,1.17,–,"0.146 µM [falling, full curve, poor fit]"
CC(C(c1cccs1)c1c(N)n(C)c(=O)n(C)c1=O)[N+](=O)[O-] (configuration not stated),35.1,–,"29.1 µM [rising, single point]"
COc1ccc(C(=O)Nc2ccc(C)cn2)cc1S(=O)(=O)N1CCCc2ccccc21,-30.1,–,"0.82 µM [falling, full curve, poor fit]"
O=C(c1ccccc1)c1c[nH]c(C(=O)C(Cl)(Cl)Cl)c1,-31.4,–,–
COc1ccc(Br)c(C(=O)NC(C)(C)CO)c1,21.8,"0.0291 µM [rising, full curve, poor fit]",–
O=C(Nc1cccc(C(=O)NC2CC2)c1)c1ccc(F)c(S(=O)(=O)N2CCOCC2)c1,-10.9,–,–
CCOC(=O)c1[nH]c2ccc(OCC)cc2c1NC(=O)CN1CCN(c2ccccc2)CC1,8.69,"0.0326 µM [rising, full curve, poor fit]",–
COc1cccc(Cl)c1NC(=O)N1CCN(c2cc(C)nc3ccccc23)CC1,30.4,–,"1.3 µM [rising, partial curve, poor fit]"
S=C(Nc1ccccc1Cl)N1CCCCCC1,-43.1,"29.1 µM [falling, single point]","32.6 µM [falling, single point]"
Cn1c(=O)c(=O)n(C)c2cc(S(=O)(=O)N3CCOCC3)ccc21,45.4,"29.1 µM [rising, single point]","29.1 µM [rising, single point]"
CCC1(c2ccccc2)NC(=O)N(CC(=O)N(C)Cc2c(F)cccc2Cl)C1=O (configuration not stated),16.9,–,–
O=C(Nc1cccc(Cl)c1N1CCCC1)c1ccc(Br)o1,-16,"0.13 µM [rising, full curve, poor fit]",–
CC(=O)Nc1ccc(Nc2cc(N(C)C)c3nonc3c2[N+](=O)[O-])cc1,15.9,"0.13 µM [rising, full curve, poor fit]",–
O=C(COc1coc(CN2CCc3ccccc3C2)cc1=O)Nc1ccc(F)cc1F,13.1,–,"0.00461 µM [falling, full curve, poor fit]"
CC(=O)Nc1ccc(NC(=O)COC(=O)c2ccco2)cc1,8.89,"0.082 µM [falling, full curve, poor fit]",–
O=C(NCCCN1CCCC1=O)C1CCN(S(=O)(=O)c2ccccc2)CC1,-3.03,"0.206 µM [falling, full curve]",–
O=C(COC(=O)C1COc2ccccc2O1)NC(=O)NC1CCCCC1 (configuration not stated),-16.2,"29.1 µM [falling, single point]","6.51 µM [falling, single point]"
COCCOC(=O)C1=C(C)NC(C)=C(C(=O)OCCOC)C1/C=C/c1ccccc1OC,17.5,"1.64 µM [rising, partial curve, poor fit]",–
CC(C)N1CN=C(Nc2nc3ccccc3o2)NC1,-27.9,"29.1 µM [falling, single point]",–

# Ordered by number of heavy atoms (low to high): 4 of the compounds above
SMILES,cell number change [%],AC50 [1],AC50 [2]
O=C(Cc1ccccc1)NCCc1cn2ccsc2n1,15,–,–
COc1cccc(C(=O)NOCc2ccccc2)c1OC,-1.3,"13 µM [rising, partial curve, poor fit]",–
CCCOc1ccc(C(=O)OCC(=O)c2c(N)n(C)c(=O)n(C)c2=O)cc1OC,1.17,–,"0.146 µM [falling, full curve, poor fit]"
O=C(COc1coc(CN2CCc3ccccc3C2)cc1=O)Nc1ccc(F)cc1F,13.1,–,"0.00461 µM [falling, full curve, poor fit]"

# The results go on.

SMILES,cell number change [%],AC50 [1],AC50 [2]
Cc1ccc(NC(=O)COC(=O)Cc2cccs2)c(Br)c1,10.7,"31.6 µM [rising, single point]",–
Cc1ccc(C2/C(=C(/O)c3ccc4c(c3)CC(C)O4)C(=O)C(=O)N2CCCn2ccnc2)cc1 (configuration not stated),-17.7,"0.13 µM [falling, full curve, poor fit]",–
O=S(=O)(NCc1cccnc1)c1ccc2ccccc2c1,0.952,–,–
Cc1ccc(C(=O)NCC(=O)Nc2ncccc2C)s1,22,–,"0.58 µM [rising, full curve, poor fit]"
COc1cccc(C(=O)OCC(=O)c2c[nH]c3ccccc23)c1O,–,"4.11 µM [falling, single point]","5.8 µM [falling, single point]"
COc1ccc(C(=O)c2nccc3ccccc23)cc1,-12.7,–,–
CCC(C)C(=O)Nc1nc(C)c(-c2csc(Nc3ccc(Cl)cc3)n2)s1 (configuration not stated),-60.3,"18.4 µM [falling, partial curve]","18.4 µM [falling, partial curve]"
CCc1cc(C(=O)OCC(=O)N2CCC(c3ccccc3)=N2)sc1C,-22.8,–,–
O=C(CC(c1ccccc1)(c1ccccc1)c1ccccc1)N[C@@H](Cc1ccc(O)cc1)C(=O)O,-21.9,"32.6 µM [falling, single point]",–
COc1nc(C)ccc1-c1noc(-c2cccnc2)n1,-9.49,–,–
COC(=O)COc1nc(C)c2c(c1C#N)CC(C)(C)OC2,25.5,"6.51 µM [falling, single point]",–
O=C1CC(c2ccccc2)=Nc2ccccc2N1Cc1ccccc1,–,"0.58 µM [rising, single point]",–
Cc1ccccc1C(=O)Nc1nnc(S(=O)(=O)N2CCCCC2)s1,16.1,"6.51 µM [rising, single point]",–
CC(C)(C)NC(=O)c1cnn2c1NC(c1ccc(F)cc1)CC2C(F)(F)F (configuration not stated),1.02,"1.84 µM [rising, single point]",–
CC(=O)c1cnn(-c2cc(Oc3ccccc3C)ncn2)c1C,35.2,–,"29.1 µM [rising, single point]"
O=C(CCN1C(=O)/C(=C\c2cccs2)SC1=S)Nc1ccccn1,–,"6.51 µM [rising, single point]",–
CCC(C(=O)NCCCc1ccccc1)n1nc(C)c2c(C)n(-c3ccccc3)nc2c1=O (configuration not stated),19.2,"1.84 µM [rising, full curve]",–
COc1ccc(C2/C(=C(/O)c3ccccc3)C(=O)C(=O)N2C)cc1OC (configuration not stated),-11.9,"6.51 µM [falling, single point]",–
CN1CCN(C(=O)CSc2nc(-c3cccs3)ccc2C#N)CC1,-11.4,"6.51 µM [rising, single point]","0.651 µM [falling, full curve, poor fit]"
